PMC6921592
Results are given in words; binding and its absence hold for the method and conditions named. In cells and extracts the contact can be indirect. Some results given as binding are weak or reduced against the parent protein; the word gives no strength.

Amino acid sequences for entries named in this document (tags omitted).
UniProt P70351: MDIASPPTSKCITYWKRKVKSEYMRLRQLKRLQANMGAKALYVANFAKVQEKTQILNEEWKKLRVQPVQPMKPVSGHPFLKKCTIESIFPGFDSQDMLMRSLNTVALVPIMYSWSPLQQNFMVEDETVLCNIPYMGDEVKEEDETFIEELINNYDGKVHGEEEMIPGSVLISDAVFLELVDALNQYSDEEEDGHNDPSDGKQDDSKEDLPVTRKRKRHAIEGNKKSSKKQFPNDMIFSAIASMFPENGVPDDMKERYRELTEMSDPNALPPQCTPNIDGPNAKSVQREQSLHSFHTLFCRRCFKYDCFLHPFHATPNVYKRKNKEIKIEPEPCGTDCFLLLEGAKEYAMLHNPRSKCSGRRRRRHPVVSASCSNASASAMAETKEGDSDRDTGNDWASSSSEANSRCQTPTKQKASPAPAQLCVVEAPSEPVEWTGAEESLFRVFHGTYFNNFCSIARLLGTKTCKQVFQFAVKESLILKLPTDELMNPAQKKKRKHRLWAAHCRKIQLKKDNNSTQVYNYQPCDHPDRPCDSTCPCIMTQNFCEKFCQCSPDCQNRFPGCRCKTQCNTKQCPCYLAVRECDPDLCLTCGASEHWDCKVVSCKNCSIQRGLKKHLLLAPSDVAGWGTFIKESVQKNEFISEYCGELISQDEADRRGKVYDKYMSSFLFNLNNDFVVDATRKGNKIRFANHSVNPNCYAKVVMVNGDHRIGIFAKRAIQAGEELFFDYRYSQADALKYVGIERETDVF
UniProt Q80U70: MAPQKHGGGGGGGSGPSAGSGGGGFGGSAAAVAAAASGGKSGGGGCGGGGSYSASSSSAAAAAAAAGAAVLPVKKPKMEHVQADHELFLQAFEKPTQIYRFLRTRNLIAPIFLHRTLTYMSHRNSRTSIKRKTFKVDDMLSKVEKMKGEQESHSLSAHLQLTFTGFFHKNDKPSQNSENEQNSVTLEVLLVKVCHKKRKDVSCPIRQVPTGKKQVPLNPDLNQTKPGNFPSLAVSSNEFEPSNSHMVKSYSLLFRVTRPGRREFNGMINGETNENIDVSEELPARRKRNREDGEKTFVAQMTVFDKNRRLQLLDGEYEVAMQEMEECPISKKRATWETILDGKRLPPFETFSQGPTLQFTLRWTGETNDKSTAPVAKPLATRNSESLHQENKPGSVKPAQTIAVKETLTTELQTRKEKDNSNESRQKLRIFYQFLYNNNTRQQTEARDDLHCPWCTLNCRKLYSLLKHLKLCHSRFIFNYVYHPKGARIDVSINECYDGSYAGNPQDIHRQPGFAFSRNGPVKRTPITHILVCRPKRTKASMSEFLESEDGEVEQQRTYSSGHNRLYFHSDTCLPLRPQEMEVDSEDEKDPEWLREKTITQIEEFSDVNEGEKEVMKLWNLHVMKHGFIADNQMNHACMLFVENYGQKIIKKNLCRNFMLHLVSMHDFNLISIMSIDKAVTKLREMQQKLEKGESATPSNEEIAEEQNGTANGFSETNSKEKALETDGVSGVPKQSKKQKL
UniProt Q921E6: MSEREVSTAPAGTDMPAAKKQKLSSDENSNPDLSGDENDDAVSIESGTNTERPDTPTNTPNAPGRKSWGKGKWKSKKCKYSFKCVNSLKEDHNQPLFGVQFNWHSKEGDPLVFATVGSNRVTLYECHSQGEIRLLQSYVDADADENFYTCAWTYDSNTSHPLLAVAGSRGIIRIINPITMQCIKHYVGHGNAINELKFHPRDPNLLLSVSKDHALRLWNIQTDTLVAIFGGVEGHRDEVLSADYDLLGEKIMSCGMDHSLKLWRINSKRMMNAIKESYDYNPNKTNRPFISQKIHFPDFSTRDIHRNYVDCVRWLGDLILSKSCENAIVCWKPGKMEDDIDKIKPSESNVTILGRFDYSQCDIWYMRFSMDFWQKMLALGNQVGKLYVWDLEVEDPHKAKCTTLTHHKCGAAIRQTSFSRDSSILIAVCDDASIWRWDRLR

Experiments:
Ezh1α-FLAG-HA = Ezh1α-FLAG-HA (UniProt P70351); assay: co-IP; Ezh1α-FH immunoprecipitated from nuclear extracts of two C2C12 stable lines, myotubes; wild-type C2C12 as mock; normal and H2O2 conditions, scramble and HUWE1 knock-down compared in Fig. 6f; immunoblot
[1] = biological target: SUZ12 (mouse (endogenous in C2C12)) (UniProt Q80U70); assay: co-IP; nuclear extracts of scramble and NEDD4 knock-down C2C12 lines, normal and oxidative stress conditions, immunoprecipitated with SUZ12 antibody; Protein A Dynabeads alone as mock; immunoblot with anti-EED

binding (Ezh1α-FLAG-HA) | binding [1] | Substance
binds |  | SUZ12 (from UniProt Q80U70 1-741)
 | binds | EED (from UniProt Q921E6 1-441)
